Source: PubChem BioAssay AID504774 (Drosophila RNAi Screening Center, 2011)

Test: 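Fly genes whose loss alters survival after alkylation damage to DNA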 (primary screen)
System: Drosophila Kc167 cells
Knock-down reagent: long dsRNA against Drosophila genes, about 0.25 µg dsRNA per well
Time to read-out: about 6 days: 3 days knock-down, then 3 days with or without MMS
Challenge: methyl methanesulphonate 0.004% (w/v) for 3 days after knock-down
Detection: 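ATP-dependent luminescence as a measure of live cells in MMS-exposed wells, quantile normalised within each plate, with replicate values also given as a mean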
Scale: mean viability with MMS and viability with MMS: higher = more surviving cells after MMS
The deposit covers about 23,000 reagents; below is an unselected part of those that have a named target and a result. 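Values are quantile-normalised luminescence on an arbitrary scale; higher means more cells surviving MMS.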 Names joined by + are all predicted targets of the reagent.

| predicted target | amplicon | mean viability with MMS | viability with MMS, replicate 1 | viability with MMS, replicate 2 |
| --- | --- | --- | --- | --- |
| meru (GeneID 39727) | DRSC09400 | 3.57e6 | 4.19e6 | 3.90e6 |
| meru (GeneID 39727) | DRSC09899 | 3.39e6 | 3.90e6 | 3.74e6 |
| meru (GeneID 39727) | DRSC10215 | 3.72e6 | 4.31e6 | 4.03e6 |
| aph-1 (GeneID 33467) | DRSC00547 | 3.45e6 | 4.03e6 | 3.69e6 |
| CG5174 (GeneID 37117) | DRSC06920 | 3.55e6 | 3.98e6 | 4.06e6 |
| RpL37A (GeneID 44783) | DRSC02899 | 3.11e6 | 3.43e6 | 3.49e6 |
| NtR (GeneID 43935) | DRSC04628 | 3.46e6 | 3.96e6 | 3.86e6 |
| CG5321 (GeneID 32399) | DRSC19940 | 3.55e6 | 3.94e6 | 4.13e6 |
| CG5321 (GeneID 32399) | DRSC22802 | 3.43e6 | 3.99e6 | 3.86e6 |
| ND-B14.5B (GeneID 33528) | DRSC00346 | 3.89e6 | 4.25e6 | 4.43e6 |
| AnxB11 (GeneID 32612) | DRSC19331 | 3.31e6 | 4.08e6 | 3.68e6 |
| CG6770 (GeneID 34621) | DRSC02992 | 3.48e6 | 3.91e6 | 3.91e6 |
| Atac2 (GeneID 35113) | DRSC02053 | 3.61e6 | 4.23e6 | 3.99e6 |
| CG11698 (GeneID 40986) | DRSC14355 | 1.84e6 | 3.98e6 | 4.02e6 |
| Eglp4 (GeneID 37739) | DRSC04438 | 3.60e6 | 4.14e6 | 4.02e6 |
| CG4496 (GeneID 34000) | DRSC02753 | 3.47e6 | 3.89e6 | 3.98e6 |
| CG5149 (GeneID 34013) | DRSC02819 | 3.57e6 | 3.99e6 | 4.11e6 |
| CG32425 (GeneID 40273) | DRSC11739 | 2.85e6 | 3.52e6 | 3.54e6 |
| CG32425 (GeneID 40273) | DRSC11764 | 3.63e6 | 4.10e6 | 4.11e6 |
| CG5466 (GeneID 42444) | DRSC15808 | 2.61e6 | 3.53e6 | 3.52e6 |
| CG5466 (GeneID 42444) | DRSC23002 | 3.79e6 | 4.14e6 | 4.44e6 |
| djl (GeneID 40839) | DRSC12578 | 3.45e6 | 3.96e6 | 3.89e6 |
| CG2104 (GeneID 40702) | DRSC12304 | 3.60e6 | 4.14e6 | 4.03e6 |
| CG42245 + MEP-1 | DRSC07993 | 3.59e6 | 4.03e6 | 4.11e6 |
| CG42245 + MEP-1 | DRSC08274 | 3.29e6 | 3.79e6 | 3.75e6 |
| CG42245 + MEP-1 | DRSC21460 | 2.87e6 | 3.63e6 | 3.64e6 |
| Ero1L (GeneID 38500) | DRSC08660 | 3.52e6 | 4.02e6 | 3.97e6 |
| FASN2 (GeneID 117361) | DRSC00167 | 3.45e6 | 4.00e6 | 3.86e6 |
| FASN2 (GeneID 117361) | DRSC00610 | 3.59e6 | 4.06e6 | 4.09e6 |
| Sur (GeneID 34350) | DRSC03447 | 3.56e6 | 4.30e6 | 3.78e6 |
| Trm7-34 (GeneID 42508) | DRSC16171 | 3.46e6 | 3.91e6 | 3.95e6 |

4 of these entries in another layout:
predicted target	amplicon	mean viability with MMS	viability with MMS, replicate 1	viability with MMS, replicate 2
aph-1 (GeneID 33467)	DRSC00547	3.45e6	4.03e6	3.69e6
CG5174 (GeneID 37117)	DRSC06920	3.55e6	3.98e6	4.06e6
RpL37A (GeneID 44783)	DRSC02899	3.11e6	3.43e6	3.49e6
NtR (GeneID 43935)	DRSC04628	3.46e6	3.96e6	3.86e6

More reagents:
| predicted target | amplicon | mean viability with MMS | viability with MMS, replicate 1 | viability with MMS, replicate 2 |
| --- | --- | --- | --- | --- |
| CG6055 (GeneID 34027) | DRSC02923 | 3.50e6 | 3.94e6 | 3.99e6 |
| apolpp (GeneID 43827) | DRSC17216 | 3.59e6 | 4.07e6 | 4.06e6 |
| Acsl (GeneID 46068) | DRSC07252 | 3.40e6 | 3.87e6 | 3.79e6 |
| CG33341 (GeneID 2768683) | DRSC22887 | 3.41e6 | 3.94e6 | 3.89e6 |
| CG15711 (GeneID 36834) | DRSC06582 | 3.47e6 | 3.86e6 | 4.00e6 |
| Ptth (GeneID 33238) | DRSC00356 | 3.54e6 | 4.03e6 | 4.01e6 |
| mRpS26 (GeneID 40001) | DRSC10823 | 3.60e6 | 4.10e6 | 4.07e6 |
| KP78a + KP78b | DRSC16721 | 3.66e6 | 4.12e6 | 4.09e6 |
| KP78a + KP78b | DRSC16722 | 3.58e6 | 4.06e6 | 4.03e6 |
| CG14459 (GeneID 40476) | DRSC11719 | 2.76e6 | 3.49e6 | 3.49e6 |
| CG14459 (GeneID 40476) | DRSC23039 | 3.40e6 | 3.96e6 | 3.77e6 |
| rib (GeneID 44855) | DRSC07021 | 3.64e6 | 4.15e6 | 4.12e6 |
| Usp20-33 (GeneID 36580) | DRSC07196 | 3.60e6 | 3.94e6 | 4.24e6 |
| d-cup (GeneID 41580) | DRSC14846 | 3.35e6 | 3.86e6 | 3.80e6 |
| CG31183 (GeneID 41927) | DRSC14403 | 3.61e6 | 4.19e6 | 4.03e6 |
| CG31183 (GeneID 41927) | DRSC15554 | 3.54e6 | 3.92e6 | 4.10e6 |
